Earlier results, collected in patent US20260384399A1, “INDAZOLE DERIVATIVES AS SEROTONERGIC AGENTS USEFUL FOR THE TREATMENT OF DISORDERS RELATED THERETO” (published 2026).
“Also recorded” adds a separate entry of the source. Some entries of the source have several records that differ or are many. This list holds those alone. There may be further records. The values listed for one entry differ, and nothing given here explains why; some may be repeats, others may stem from another dose, organism or construct than stated.

Test system: 5-HT2 receptor
Settings: daily administration; cited from earlier work

CCN(CC)C(=O)[C@@H]1C=C2c3cccc4[nH]cc(c34)C[C@H]2N(C)C1
5-HT2 receptor density in rat brain: selectively decreased 5-HT2 receptor density; also recorded: reduce 5-HT2 receptor density in rat brain
